{"sequences": {"note": "Chains of the proteins cited; added tags and fusions are not shown.", "UniProt P19643, whole entry, looked up": "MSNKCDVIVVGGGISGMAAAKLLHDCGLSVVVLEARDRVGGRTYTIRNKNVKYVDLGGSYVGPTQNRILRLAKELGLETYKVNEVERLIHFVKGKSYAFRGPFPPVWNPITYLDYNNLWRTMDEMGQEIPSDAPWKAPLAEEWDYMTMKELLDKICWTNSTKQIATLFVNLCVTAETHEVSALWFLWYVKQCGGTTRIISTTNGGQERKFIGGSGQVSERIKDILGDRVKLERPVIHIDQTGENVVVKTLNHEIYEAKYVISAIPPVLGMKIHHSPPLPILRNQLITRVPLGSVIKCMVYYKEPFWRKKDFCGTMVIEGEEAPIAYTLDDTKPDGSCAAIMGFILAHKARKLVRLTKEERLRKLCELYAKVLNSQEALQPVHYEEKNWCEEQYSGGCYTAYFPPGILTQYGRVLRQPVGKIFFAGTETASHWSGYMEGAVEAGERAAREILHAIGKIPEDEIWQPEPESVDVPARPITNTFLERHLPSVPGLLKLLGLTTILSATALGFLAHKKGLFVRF", "UniProt P28190, whole entry, looked up": "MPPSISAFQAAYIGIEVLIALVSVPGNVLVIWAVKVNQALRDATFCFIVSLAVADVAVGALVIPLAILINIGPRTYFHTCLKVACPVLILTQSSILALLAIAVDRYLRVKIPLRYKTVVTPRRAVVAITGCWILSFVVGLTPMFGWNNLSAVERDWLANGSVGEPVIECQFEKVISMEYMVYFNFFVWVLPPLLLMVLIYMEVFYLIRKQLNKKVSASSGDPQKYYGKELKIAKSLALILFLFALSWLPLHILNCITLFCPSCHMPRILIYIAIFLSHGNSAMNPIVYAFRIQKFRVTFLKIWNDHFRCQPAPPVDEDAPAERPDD"}, "source": "PubChem BioAssay (EPA / NIEHS)", "key": {"[1]": {"target": "rat Monoamine Oxidase, MAO-B, Peripheral (MAOBP), Maob (gene 25750) (UniProt P19643)", "test": "NVS_ENZ_rMAOBP: NovaScreen (NVS) Enzymatic Assay for rat Monoamine Oxidase, MAO-B, Peripheral (MAOBP) (AID 2283242)"}, "[2]": {"target": "Adenosine receptor A1 (Bos taurus) (UniProt P28190)", "test": "NVS_GPCR_bAdoR_NonSelective: NovaScreen (NVS) G Protein-Coupled Receptor Assay for bovine Adenosine Receptor (AdoR), Non-selective Binding (AID 2283244)", "in_short": "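Cell-free binding with membranes from bovine striatum: radioligand displaced by test chemical, read after 1 h by filtration and scintillation. Single-point 25 uM duplicate primary, 50 uM top concentration in follow-up curves, DMSO baseline.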"}, "[3]": {"test_system": "rat Monoamine Oxidase, MAO-A, Central (MAOAC), gene 29253", "test": "NVS_ENZ_rMAOAC: NovaScreen (NVS) Enzymatic Assay for rat Monoamine Oxidase, MAO-A, Central (MAOAC) (AID 2283243);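 note: potency refers to inhibition seen as signal drop below DMSO baseline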", "in_short": "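Lysate-based radiometric enzyme assay using rat brain tissue; 1.5 h treatment; 25 uM single-point duplicate screen, concentration-response follow-up; loss of signal versus DMSO.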"}, "[4]": {"test_system": "guinea pig Leukotriene B4 Receptor (LTB4), gene 100379538", "test": "NVS_GPCR_gLTB4: NovaScreen (NVS) G Protein-Coupled Receptor Assay for guinea pig Leukotriene B4 Receptor (LTB4) (AID 2283247)", "in_short": "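Membranes from guinea pig spleen incubated 2 h with radioligand and compound; bound counts measured by filtration and scintillation. Screened first at 25 uM in duplicate, then actives titrated to a 50 uM top concentration relative to DMSO.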"}, "[5]": {"test": "NVS_GPCR_bNPY_NonSelective: NovaScreen (NVS) G Protein-Coupled Receptor Assay for bovine Neuropeptide Y (NPY) Receptor, Non-selective Binding (AID 2283245)", "in_short": "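Displacement of radioligand from bovine hippocampal membrane receptors, read by filtration and scintillation counting after 1 hour. Concentration-response to a top of 50 uM followed a 25 uM duplicate primary screen. Loss of signal versus DMSO.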"}, "[6]": {"test_system": "guinea pig Muscarinic, Peripheral (Mperiperal) Receptor, Non-selective Binding, gene 100379235", "test": "NVS_GPCR_gMPeripheral_NonSelective: NovaScreen (NVS) G Protein-Coupled Receptor Assay for guinea pig Muscarinic, Peripheral (Mperiperal) Receptor, Non-selective Binding (AID 2283250)", "in_short": "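Screened in duplicate at 25 uM, hits retested in concentration series to 50 uM max, using bladder membrane radioligand displacement from guinea pig. Filtration and scintillation counting 1 h post-dose, fitted relative to DMSO.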"}}, "note": "Inconclusive results, whose numbers are uncertain, are shown with a selection of clear calls. For part of these data: Potencies of inconclusive entries are doubtful fits and often do not repeat. Where a structure was tested more than once in an assay, its records may differ in their call. Activity calls are given as the source filed them. Rule for the calls: active = hit-call score of the fitted dose curve at least 0.9, where 1 is the maximum; inconclusive = response in the unintended direction; inactive = score below 0.9."}
{"smiles": "Nc1ccc(N=Nc2ccccc2)cc1", "values": [{"measurement": "outcome", "setting": "[1]", "result": "inactive"}, {"measurement": "AC50", "setting": "[2]", "result": "active: 25 µM"}]}
{"smiles": "Nc1c(Cl)cc([N+](=O)[O-])cc1Cl", "values": [{"measurement": "AC50", "setting": "[1]", "result": "active: 39.8 µM"}]}
{"smiles": "N#CCNCC#N", "values": [{"measurement": "AC50", "setting": "[3]", "result": "inconclusive: 6.63 µM"}]}
{"smiles": "ClC1=C(Cl)[C@]2(Cl)[C@H]3[C@H]([C@@H]4C=C[C@H]3C4)[C@@]1(Cl)C2(Cl)Cl", "values": [{"measurement": "outcome", "setting": "[1]", "result": "inactive"}]}
{"smiles": "Nc1cc(Cl)cc(C(=O)O)c1Cl", "values": [{"measurement": "AC50", "setting": "[2]", "result": "inconclusive: 25 µM"}]}
{"smiles": "O=P1(N(CCCl)CCCl)NCCCO1", "note": "(centres undefined)", "values": [{"measurement": "AC50", "setting": "[3]", "result": "inconclusive: 0.0877 µM"}]}
{"smiles": "COc1ccc(C(c2ccc(OC)cc2)C(Cl)(Cl)Cl)cc1", "values": [{"measurement": "AC50", "setting": "[3]", "result": "inconclusive: 3.82 µM"}]}
{"smiles": "COP(=O)(OC)OC(Br)C(Cl)(Cl)Br", "note": "(centres undefined)", "values": [{"measurement": "AC50", "setting": "[1]", "result": "inconclusive: 0.215 µM"}]}
{"smiles": "C[C@]12CCC(=O)C[C@@H]1CC[C@@H]1[C@@H]2CC[C@]2(C)[C@@H](O)CC[C@@H]12", "values": [{"measurement": "outcome", "setting": "[1]", "result": "inactive"}, {"measurement": "AC50", "setting": "[4]", "result": "inconclusive: 0.457 µM"}]}
{"smiles": "CCCCC(O)(Cn1cncn1)c1ccc(Cl)cc1Cl", "note": "(centres undefined)", "values": [{"measurement": "AC50", "setting": "[1]", "result": "inconclusive: 0.00229 µM"}]}
{"smiles": "O=C(Nc1ccccc1)Nc1cnns1", "values": [{"measurement": "AC50", "setting": "[1]", "result": "inconclusive: 25 µM"}]}
{"smiles": "CC(C)(C)C(O)C(Oc1ccc(Cl)cc1)n1cncn1", "note": "(centres undefined)", "values": [{"measurement": "AC50", "setting": "[1]", "result": "inconclusive: 5.89 µM"}]}
{"smiles": "Oc1c(Cl)c(Cl)c(Cl)c(Cl)c1Cl", "values": [{"measurement": "outcome", "setting": "[2]", "result": "inactive"}]}
{"smiles": "CCCCCOC(=O)c1ccccc1C(=O)OCCCCC", "values": [{"measurement": "AC50", "setting": "[2]", "result": "inconclusive: 6.98 µM"}]}
{"smiles": "CCCCNC(=O)OCC#CI", "values": [{"measurement": "AC50", "setting": "[1]", "result": "inconclusive: 0.185 µM"}, {"measurement": "AC50", "setting": "[2]", "result": "active: 11.9 µM"}, {"measurement": "outcome", "setting": "[2]", "result": "inactive"}, {"measurement": "AC50", "setting": "[5]", "result": "active: 4.96 µM"}, {"measurement": "outcome", "setting": "[5]", "result": "inactive"}, {"measurement": "AC50", "setting": "[6]", "result": "inconclusive: 0.822 µM"}]}
{"smiles": "Oc1cccc2cccnc12", "values": [{"measurement": "AC50", "setting": "[3]", "result": "inconclusive: 0.00229 µM"}]}
{"smiles": "Nc1c(Cl)c(Cl)nc(C(=O)O)c1Cl", "values": [{"measurement": "AC50", "setting": "[1]", "result": "inconclusive: 0.81 µM"}]}
{"smiles": "CCN(CC)c1ccccc1", "values": [{"measurement": "outcome", "setting": "[1]", "result": "inactive"}]}
{"smiles": "Oc1ccccc1-c1ccccc1", "values": [{"measurement": "AC50", "setting": "[1]", "result": "inconclusive: 0.101 µM"}]}
{"smiles": "O=C(NC(=O)c1cc(F)c(F)cc1Cl)Nc1cc(F)ccc1N1CCC(C(=O)O)CC1", "values": [{"measurement": "AC50", "setting": "[1]", "result": "inconclusive: 12.5 µM"}, {"measurement": "AC50", "setting": "[2]", "result": "inconclusive: 0.684 µM"}]}
{"smiles": "Clc1ccc(C2(Cn3cncn3)CC(Br)CO2)c(Cl)c1", "note": "(centres undefined)", "values": [{"measurement": "AC50", "setting": "[3]", "result": "inconclusive: 25 µM"}]}
{"smiles": "Clc1ccc(Cl)cc1", "values": [{"measurement": "outcome", "setting": "[2]", "result": "inactive"}]}
{"smiles": "CC(C)(O)c1cnn2c(-c3ccc(F)c(-c4c(F)cccc4C#N)c3)cnc2n1", "values": [{"measurement": "outcome", "setting": "[1]", "result": "inactive"}]}
{"smiles": "Brc1ccc(Oc2ccccc2)cc1", "values": [{"measurement": "AC50", "setting": "[2]", "result": "inconclusive: 1.6 µM"}]}
{"smiles": "CCC(C)(C)c1ccc(O)c(C(C)(C)CC)c1", "values": [{"measurement": "AC50", "setting": "[2]", "result": "inconclusive: 25 µM"}]}
{"smiles": "CCC(=O)C(CC(C)N(C)C)(c1ccccc1)c1ccccc1", "note": "(centres undefined)", "values": [{"measurement": "AC50", "setting": "[2]", "result": "inconclusive: 18.1 µM"}]}
{"smiles": "Cn1sc(Cl)cc1=O", "values": [{"measurement": "outcome", "setting": "[2]", "result": "inactive"}]}
{"smiles": "O=[N+]([O-])c1cc(C(F)(F)F)c(Cl)c([N+](=O)[O-])c1Nc1ncc(C(F)(F)F)cc1Cl", "values": [{"measurement": "AC50", "setting": "[1]", "result": "inconclusive: 6.51 µM"}]}
{"smiles": "COc1nc(NC(C)C)nc(NC(C)C)n1", "values": [{"measurement": "AC50", "setting": "[2]", "result": "active: 25 µM"}]}
{"smiles": "CCC[CH2][Sn]([Cl])([CH2]CCC)[CH2]CCC", "values": [{"measurement": "AC50", "setting": "[6]", "result": "active: 9.81 µM"}]}
{"smiles": "COP(=S)(OC)SCn1nnc2ccccc2c1=O", "values": [{"measurement": "outcome", "setting": "[6]", "result": "inactive"}]}
